PMC10359499
Results are given in words; binding and its absence hold for the method and conditions named. Where a sequence is shown, tags or fusion partners need not be part of it.

Biological target: EL346 (light-oxygen-voltage histidine kinase from Erythrobacter litoralis HTCC2594) (Erythrobacter litoralis HTCC2594) (UniProt Q2NB77)
Test: SEC-MALS; LOV-HKs and RH376 deletion mutants; ~15 μM sample (400 μl) with 1 mM ATP on Superdex 200 GL 10/300 in HSEC buffer (50 mM Hepes pH 7.5, 100 mM NaCl, 10 mM MgCl2, 0.5 mM DTT) with 1 mM ATP; dark (dim red light) and lit (blue LED) runs; FPLC at 4 °C, MALS and refractive index at 25 °C; n = 1; oligomeric state on a qualitative five-bin scale; both purified

B1: EL346 (light-oxygen-voltage histidine kinase from Erythrobacter litoralis HTCC2594) (enzyme, UniProt Q2NB77 1-346)
chain: MAVGLAEHDKEAWGRLPFSLTIADISQDDEPLIYVNRAFEQMTGYSRSSVVGRNCRFLQGEKTDPGAVERLAKAIRNCEEVEETIYNYRADGEGFWNHLLMGPLEDQDEKCRYFVGIQVDMGQSESPDRATELDRQLAEVQHRVKNHLAMIVSMIRIQSSQAGGVGSQFDSLSRRVEALQLLYQEMDIAGAAKATDKIIPLGAYLGRIASAINHIDGRGAIKVNVQADTVDVPVETAGRIGLLVSEVLTNALQHAFSDRASGVVQLRSSVMSGEQLRVTVEDDGRGIPEDCDWPNEGNLGSRIVRQLVQGLGAELNVTRGGTGTIVNIDIPLSQQKTLIADERTKD
binding: no binding (tested: ~15 μM)
